Reference: article PMC8143792, “Sec17/Sec18 can support membrane fusion without help from completion of SNARE zippering” (eLife, 2021)
No constants are given. Whether binding was seen depends on the method and setting. A result given as binding can be weak or reduced; the word gives no strength. Tags and fused reporters may be left off the sequences shown.

Biological target: T1, his6-R (Nyv1), full-length R-SNARE with a 6his-tag on its N-terminus (Saccharomyces cerevisiae) (UniProt Q12255)
T1 sequence: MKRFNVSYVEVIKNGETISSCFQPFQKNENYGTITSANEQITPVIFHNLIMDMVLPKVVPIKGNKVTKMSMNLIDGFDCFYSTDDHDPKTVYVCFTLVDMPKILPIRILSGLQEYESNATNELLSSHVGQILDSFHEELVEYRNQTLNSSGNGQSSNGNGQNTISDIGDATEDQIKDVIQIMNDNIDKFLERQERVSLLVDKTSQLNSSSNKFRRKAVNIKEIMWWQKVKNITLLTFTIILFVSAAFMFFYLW
Assay: pull-down; his6-R held on nickel-NTA agarose; 2.5 µM of each SNARE (R and three Q-SNAREs mixed), Buffer 151 (20 mM HEPES-NaOH, pH 7.4, 150 mM NaCl, 10% glycerol, 1% ß-OG, 20 mM imidazole), 4°C, 2 hr then 1 hr on beads; immunoblot; both purified

- binding: binds
Substance: Qc3Δ, Qc (Vam7) ending at the SNARE domain layer +3 (Saccharomyces cerevisiae) (domain or fragment)
